Test results: publication PMC8168755, “Discovery of new VEGFR-2 inhibitors based on bis([1, 2, 4]triazolo)[4,3-a:3',4'-c]quinoxaline derivatives as anticancer agents and apoptosis inducers” (Journal of Enzyme Inhibition and Medicinal Chemistry, 2021)
Not every entry of the source has a single result; some have several. The other results are left out here. There may be further records. Results that share an entry do not match, cause unknown; they may come from other doses, times, organisms or constructs than stated.

System: BAX/Bcl-2 ratio
Assay: Western blot, BAX/Bcl-2 ratio in HepG2 cells
Conditions: HepG2, 24 h; control 1.00; mean ± SEM of three experiments

O=C(CSc1nnc2c3nncn3c3ccccc3n12)Nc1ccc(C(=O)Nc2cc(Cl)ccc2Cl)cc1 [Compound 23j, 4-(2-(Bis([1,2, 4]triazolo)[4,3-a:3′,4′-c]uinoxaline-3-ylthio)acetamido)-N-(2,5-dichlorophenyl)benzamide]
Protein expression (normalized to β-actin) BAX/Bcl-2 ratio: 4.34 and 4.34 ···
